The list does not hold the whole screen: it gathers tests that were run many times, whatever their T/C, doses with no T/C, and many T/C values between a quarter and a half above the control. Other doses and runs of a compound stand elsewhere. T/C: endpoint of the treated group in % of that of the vehicle group. Some doses have a count of surviving animals in place of a T/C: the source holds a T/C of zero for them, seemingly a mark for toxic or unscored doses. Some doses without a T/C left all or most animals alive at the check, yet need not have been tolerated: the source hardly ever lists a survival T/C far under the control, and the zero likely stands for such cases as well. Survivors were counted at the toxicity check, usually on the fifth day, unless a day is given; later deaths do not show. Schedule codes are those of the source, taken here to give the interval after Q, in days (D) or hours (H), and the number of doses after X. For survival time, the PubChem record calls one and a half times the control and up active, and a quarter to a half above the control has no call in these data; cut-offs in other NCI protocols can differ. Some T/C values carry the count of animals alive at the toxicity check (mostly the fifth day); without a count, all were alive then. Some entries were tested several times; their values stand side by side, smallest first.
System: P388 leukemia ip, CD2F1 mice, survival T/C
Test: NCI In Vivo Anticancer Drug Screen. Data for tumor model P388 Leukemia (intraperitoneal) in CD2F1 (CDF1) mice
Conditions: T/C endpoint: median survival time, higher T/C = longer survival
[1] = dose: 400.0 mg/kg/injection, schedule: Q04DX002 (ip), vehicle: saline with Tween-80
[2] = dose: 600.0 mg/kg/injection, schedule: Q04DX002 (ip), vehicle: saline with Tween-80
[3] = dose: 240.0 mg/kg/injection, schedule: Q01DX005 (ip), vehicle: saline with Tween-80
[4] = dose: 100.0 mg/kg/injection, schedule: Q01DX009 (ip), vehicle: Klucel (hydroxypropylcellulose) (HPC)
[5] = dose: 200.0 mg/kg/injection, schedule: Q01DX009 (ip), vehicle: saline
[6] = dose: 200.0 mg/kg/injection, schedule: Q01DX005 (ip), vehicle: saline with Tween-80
[7] = dose: 100.0 mg/kg/injection, schedule: Q01DX005 (ip), vehicle: saline with Tween-80
[8] = dose: 100.0 mg/kg/injection, schedule: Q01DX009 (ip), vehicle: saline with Tween-80
[9] = dose: 50.0 mg/kg/injection, schedule: Q01DX009 (ip), vehicle: saline with Tween-80
[10] = dose: 25.0 mg/kg/injection, schedule: Q01DX009 (ip), vehicle: saline with Tween-80
[11] = dose: 100.0 mg/kg/injection, schedule: Q04DX003 (ip), vehicle: saline with Tween-80

With `O=S(=O)(N=N/C=C1\C=CC=CN1O)c1cccs1` the T/C (dose: 50.0 mg/kg/injection, schedule: Q04DX002 (ip), vehicle: saline with Tween-80) was 133 % of control [5 of 6 alive], the T/C (dose: 100.0 mg/kg/injection, schedule: Q04DX002 (ip), vehicle: saline with Tween-80) was 106 [5 of 6 alive], 108, 109, 121 % of control and the T/C (dose: 200.0 mg/kg/injection, schedule: Q04DX002 (ip), vehicle: saline with Tween-80) was 110, 114 [5 of 6 alive], 137, 140 % of control. For the same molecule, the T/C [1] was 114 [4 of 6 alive], 120 [5 of 6 alive], 150 % of control, the survivor count [1] was 2 of 6 and the T/C [2] was 125 % of control [4 of 6 alive]. For the same molecule, the survivor count [2] was 2 of 6.
For `CCOC(=O)C(N)Cc1ccc(N(CCCl)CCCl)cc1` (stereo not drawn), the survivor count (dose: 12.5 mg/kg/injection, schedule: Q01DX009 (ip), vehicle: saline) was 6 of 6, the survivor count (dose: 25.0 mg/kg/injection, schedule: Q04DX003 (ip), vehicle: saline) was 6 of 6 and the T/C (dose: 250.0 micrograms/kg/injection, schedule: Q04DX003 (ip), vehicle: saline) was 136 % of control.
In the case of `C[N+]1(C)N=C([O-])N(Cc2ccccc2)C1=O`, the survivor count (dose: 400.0 mg/kg/injection, schedule: Q04DX003 (ip), vehicle: saline) was 1 of 6.
In the case of `O=C(Nc1ccc(S(=O)(=O)F)cc1)/C(=C/c1ccc([N+](=O)[O-])cc1)c1ccccc1`, the survivor count [3] was 2 of 6.
`OC(CBr)C(O)C(O)C(O)CBr` (stereo not drawn) was tested, and the T/C (dose: 25.0 mg/kg/injection, schedule: Q01DX009 (ip), vehicle: Klucel (hydroxypropylcellulose) (HPC)) was 126 % of control, the T/C (dose: 30.0 mg/kg/injection, schedule: Q01DX009 (ip), vehicle: Klucel (hydroxypropylcellulose) (HPC)) was 135 % of control and the T/C (dose: 40.0 mg/kg/injection, schedule: Q01DX009 (ip), vehicle: Klucel (hydroxypropylcellulose) (HPC)) was 148 % of control. For the same molecule, the T/C (dose: 50.0 mg/kg/injection, schedule: Q01DX009 (ip), vehicle: Klucel (hydroxypropylcellulose) (HPC)) was 137 % of control, the T/C (dose: 50.0 mg/kg/injection, schedule: Q01DX009 (ip), vehicle: distilled water + Tween-80) was 135 % of control and the T/C (dose: 80.0 mg/kg/injection, schedule: Q01DX005 (ip), vehicle: Klucel (hydroxypropylcellulose) (HPC)) was 134 and 140 % of control. For the same molecule, the T/C [4] was 144 % of control, the survivor count [4] was 3 of 6 and the T/C (dose: 100.0 mg/kg/injection, schedule: Q01DX009 (ip), vehicle: distilled water + Tween-80) was 144 % of control. The T/C (dose: 120.0 mg/kg/injection, schedule: Q01DX005 (ip), vehicle: Klucel (hydroxypropylcellulose) (HPC)) was 148 % of control, the survivor count (dose: 180.0 mg/kg/injection, schedule: Q01DX005 (ip), vehicle: Klucel (hydroxypropylcellulose) (HPC)) was 10 of 10 and the T/C (dose: 200.0 mg/kg/injection, schedule: Q01DX009 (ip), vehicle: Klucel (hydroxypropylcellulose) (HPC)) was 138 % of control. The T/C (dose: 200.0 mg/kg/injection, schedule: Q01DX009 (ip), vehicle: distilled water + Tween-80) was 132 % of control, the T/C [5] was 148 % of control and the survivor count (dose: 400.0 mg/kg/injection, schedule: Q01DX009 (ip), vehicle: Klucel (hydroxypropylcellulose) (HPC)) was 10 of 10. For the same molecule, the survivor count (dose: 400.0 mg/kg/injection, schedule: Q01DX009 (ip), vehicle: distilled water + Tween-80) was 6 of 6, the T/C (dose: 400.0 mg/kg/injection, schedule: Q01DX010 (ip), vehicle: saline) was 127 % of control and the T/C (dose: 600.0 mg/kg/injection, schedule: Q01DX009 (ip), vehicle: saline with Tween-80) was 137 % of control. The T/C (dose: 800.0 mg/kg/injection, schedule: Q01DX009 (ip), vehicle: saline with Tween-80) was 130 % of control and the survivor count (dose: 1200.0 mg/kg/injection, schedule: Q01DX009 (ip), vehicle: saline with Tween-80) was 6 of 10.
`CC1=C(C)C(=O)c2nn(C)nc2C1=O` was tested, and the survivor count (dose: 100.0 mg/kg/injection, schedule: Q01DX001 (ip), vehicle: saline with Tween-80) was 1 of 6, the survivor count (dose: 200.0 mg/kg/injection, schedule: Q01DX001 (ip), vehicle: saline with Tween-80) was 0 of 6 and the survivor count (dose: 400.0 mg/kg/injection, schedule: Q01DX001 (ip), vehicle: saline with Tween-80) was 0 of 6.
In the case of `O=C1C=CC(O)C2C1CC13SSC4(CC5C(=O)C=CC(O)C5N4C1=O)C(=O)N23` (stereo not drawn), the survivor count (dose: 16.0 mg/kg/injection, schedule: Q01DX009 (ip), vehicle: Klucel (hydroxypropylcellulose) (HPC)) was 2 of 6 and the survivor count (dose: 32.0 mg/kg/injection, schedule: Q01DX009 (ip), vehicle: Klucel (hydroxypropylcellulose) (HPC)) was 0 of 6.
In the case of `Cc1nn(-c2ccccc2)nc1CBr`, the survivor count [6] was 3 of 6.
In the case of `OCC(O)C(O)C(O)c1nn(-c2ccccc2)c2nc3ccccc3nc12` (stereo not drawn), the survivor count [7] was 6 of 6.
With `O=c1n(CC2CC3(Cl)C(Cl)=C(Cl)C2(Cl)C3(Cl)Cl)c(=O)n(CC2CC3(Cl)C(Cl)=C(Cl)C2(Cl)C3(Cl)Cl)c(=O)n1CC1CC2(Cl)C(Cl)=C(Cl)C1(Cl)C2(Cl)Cl` (stereo not drawn) the survivor count [8] was 6 of 6.
With `CC1=C(C)C(=O)C(CCl)=[C-]C1=O.[Co].[c-]1[c-][c-][cH-][c-]1` the survivor count [7] was 2 of 6 and the survivor count [6] was 0 of 6.
For `CN(C)c1cc(-c2ccccc2)oc(=O)c1Cl`, the survivor count (dose: 200.0 mg/kg/injection, schedule: Q01DX009 (ip), vehicle: saline with Tween-80) was 0 of 6.
With `COC(=O)C1=C(C(=O)OC)C2C=CC1C1C(Cl)C(Cl)C21` (stereo not drawn) the survivor count [9] was 6 of 6.
For `CCOC(=O)NCP(Cl)(CNC(=O)OCC)(CNC(=O)OCC)CNC(=O)OCC`, the survivor count [5] was 3 of 6.
`Brc1ccc(-c2cnc3nc4[nH]c5ccccc5c4nn23)cc1` was tested, and the survivor count [7] was 6 of 6 and the survivor count [6] was 6 of 6.
`COC(=O)c1nc(-c2ccc3c(n2)C(=O)C(N)=C(OC)C3=O)c(N)c(-c2ccc(OC)c(OC)c2O)c1C` was tested, and the T/C (dose: 12.5 mg/kg/injection, schedule: Q01DX009 (ip), vehicle: saline with Tween-80) was 137 % of control, the T/C [10] was 129 % of control and the survivor count [10] was 6 of 6. The survivor count [9] was 6 of 6, the survivor count [8] was 6 of 6 and the T/C [11] was 140 % of control. For the same molecule, the survivor count [11] was 6 of 6, the survivor count (dose: 150.0 mg/kg/injection, schedule: Q04DX003 (ip), vehicle: saline with Tween-80) was 6 of 6 and the survivor count (dose: 200.0 mg/kg/injection, schedule: Q04DX003 (ip), vehicle: saline with Tween-80) was 6 of 6. The survivor count (dose: 400.0 mg/kg/injection, schedule: Q04DX003 (ip), vehicle: saline with Tween-80) was 1 of 6.
In the case of `CC(C)(C)C(=O)C1C(=O)c2ccccc2C1=O`, the survivor count (dose: 6.25 mg/kg/injection, schedule: Q04DX003 (ip), vehicle: Klucel (hydroxypropylcellulose) (HPC)) was 6 of 6, the survivor count (dose: 12.5 mg/kg/injection, schedule: Q04DX003 (ip), vehicle: Klucel (hydroxypropylcellulose) (HPC)) was 6 of 6 and the survivor count (dose: 25.0 mg/kg/injection, schedule: Q04DX003 (ip), vehicle: Klucel (hydroxypropylcellulose) (HPC)) was 6 of 6. The survivor count (dose: 50.0 mg/kg/injection, schedule: Q04DX003 (ip), vehicle: Klucel (hydroxypropylcellulose) (HPC)) was 6 of 6, the survivor count (dose: 100.0 mg/kg/injection, schedule: Q04DX003 (ip), vehicle: Klucel (hydroxypropylcellulose) (HPC)) was 0 of 6 and the survivor count (dose: 200.0 mg/kg/injection, schedule: Q04DX003 (ip), vehicle: Klucel (hydroxypropylcellulose) (HPC)) was 0 of 6. The survivor count (dose: 400.0 mg/kg/injection, schedule: Q04DX003 (ip), vehicle: Klucel (hydroxypropylcellulose) (HPC)) was 0 of 6.
With `CCc1ccc2c(c1)C(=O)c1c(c(-c3ccccc3)c3ccccc3c1-c1ccccc1)C2=O` the survivor count (dose: 12.5 mg/kg/injection, schedule: Q01DX005 (ip), vehicle: saline with Tween-80) was 5 of 5, the survivor count (dose: 25.0 mg/kg/injection, schedule: Q01DX005 (ip), vehicle: saline with Tween-80) was 5 of 5 and the survivor count (dose: 50.0 mg/kg/injection, schedule: Q01DX005 (ip), vehicle: saline with Tween-80) was 5 of 5.
In the case of `CN(C)CC1=Nc2cccc3cccc(c23)N1`, the survivor count [3] was 0 of 6.
